# Data from PubChem BioAssay AID1745850 (National Center for Advancing Translational Sciences (NCATS), 2022).
# In all, about 2,100 compounds went through this assay and about 260 (12%) were called active. The inconclusive results got no clear call from the source; some entries with a clear call stand among them for comparison. Calls come from the whole dose curve; as a rule, active = well fitted cell-killing curve with a large enough effect; inconclusive = small, poorly fitted or top-dose-only effect, or effect the other way; inactive = flat fitted curve, though single readings scatter. Potencies beside an inconclusive call are fits to weak or partial responses and may not hold up.
# Test: Viability Counterscreen for Confirmatory qHTS for Inhibitors of ATXN expression; note: nearly all actives have a fitted effect of over 50% in size
# Conditions: HEK-293 ATXN2-luc cells viability, CellTiter-Fluor, 24 h; activity change, negative = cytotoxicity: at 57.5 µM (top of the series)
# Source text: PI: Daniel Scoles Ph.D. University of Utah School of Medicine, Salt Lake City, Utah MLPCN Grant: NS073009 Spinocerebellar ataxia type 2 (SCA2) is a multisystem neurodegenerative disease caused by a dominantly acting mutation leading to expansion of a polyQ domain in the ataxin-2 protein (ATXN2). SCA2 patients develop progressive ataxia and later lose function in other neuronal systems. Prominent parkinsonian signs develop in some patients. Like many neurodegenerative disorders, no symptomatic or disease-modifying treatments are known. The primary objective of the proposed research is to identify compounds inhibiting ATXN2 expression and to test them for efficacy in SCA2 mouse models. We have developed a cell-based assay paired with an in vivo mouse model using identical luciferase expression constructs. This approach takes advantage of an ATXN2-luciferase transgene, with the luciferase gene flanked by the upstream and downstream portions of the ATXN2 gene. Here we describe a 5-7 dose quantitative high thoroughput screen (qHTS) for compounds lowering ATXN2 expression. We screened the NIH Molecular Libraries Small Molecule Repository (MLSMR) and NCGC's mechanistically annotated (MIPE) and drug repurposing (NPC) collections of compounds for lowering expression of an ATXN2-luciferase reporter in HEK-293 cells. The assay is a multiplexed cell viability assay to ensure target reduction in the absence of cytotoxicity. Secondary qHTS assays included a CMV-luciferase reporter expressed in HEK-293 cells as well as a biochemical assay using recombinant luciferase to detect inhibitors of the reporter enzyme. Compounds that inhibit ATXN2 expression but is not cytotoxic were selected for confirmatory and secondary screens.
# PROTOCOL TABLE (as described by Inglese J, Shamu CE and Guy RK. 2007) SEQUENCE No. (e.g., 1, 2, 3, etc.); […] (e.g., Cells, Incubation, Reagent, etc.); VALUE; DESCRIPTION. 1; Cells; 4 uL; white, solid bottom, 1536-well Greiner assay plate. 2; Incubation; 2 hr; 37 degree C in 5% humidified CO2. 3; Compounds; 23 nL; Kalypsis pintool (Wako USA) equipped with a 1536-well pin head. 4; Incubation; 24 hr; 37 degree C in 5% humidified CO2. 5; Reagent; 1 uL; Gly-Phe-7-Amino-4-trifluoromethylcoumarin. 6; Incubation; 30 min; 37 degree C in 5% humidified CO2. 7; Detection; Fluorescence; ViewLux plate reader (PerkinElmer). 8; Reagent; 3 uL; SteadyGlo luciferase solution (Promega). 9; Incubation; 5 min; room temperature. 10; Detection; Luminescence; ViewLux plate reader (PerkinElmer). NOTES (numbers refer to Sequence numbers above) 1. S2 cells expressing ATXN2-luciferase reporter were suspended in phenol-red free DMEM and dispensed in assay plates using a Multidrop Combi dispenser (Thermo Fisher Scientific). Wells containing medium only were plated on each plate, and values were used to normalize (100% inhibition) in the luciferase and CellTiter-Fluor assays. 2. Assay plates were incubated. Evaporation was prevented by covering assay plates with metal lids containing holes to allow gas diffusion. 3. Compounds were added in a dose response manner with the final concentrations of 57, 11.4, 2.28, 0.46, 0.091, 0.018, 0.0037 uM. Vehicle-only plates, with DMSO being pin-transferred to columns 5-48, were inserted uniformly at the beginning and the end of each library to monitor and record any shifts in assay performance. 5. 125 uM Gly-Phe-7-Amino-4-trifluoromethylcoumarin (MP Biomedicals) working concentration was used at a final concentration of 25 uM. 7. To assess cell viability; the assay plates were read using the ViewLux high-throughput CCD imager (PerkinElmer), wherein single end-point fluorescence measurement was acquired (excitation 405/10; emission 540/25 nm). 8. Detection reagent SteadyGlo Luciferase (Promega) was added to the assay plate. 10. Luminescence is then measured on the ViewLux imager equipped with a clear emission filter using a 2 sec exposure. […]
# Potency is the fitted concentration of half-maximal effect.
Structure (SMILES),Potency,"activity change, negative = cytotoxicity"
CCCCC(=O)N/N=C/c1c(O)n(Cc2ccc(F)cc2)c(=O)[nH]c1=O,"inconclusive: 25.1 µM [cytotoxic, partial curve]",–
CN1C(=O)NC(=O)/C(=C\C=C\c2ccccc2[N+](=O)[O-])C1=O,"inconclusive: 10 µM [cytotoxic, partial curve, poor fit]",–
N[C@@H](Cc1ccc(N(CCCl)CCCl)cc1)C(=O)O,"inconclusive: 12.6 µM [cytotoxic, partial curve]",–
C=Cc1cc(OC)c2c(c1)c(=O)oc1c2cc(OC)c2c(O)ccc(C3OC(C)C(O)C(C)(O)C3O)c21 (configuration not stated),"inconclusive: 3.55 µM [cytotoxic, full curve]",–
C#CCCC[C@@H]1OC(=O)CNC(=O)C([C@@H](C)CC)NC(=O)[C@@H]2CCCN2C(=O)C([C@@H](C)CC)OC(=O)[C@H](Cc2ccccc2)N(C)C(=O)[C@H](C(C)C)NC(=O)C1(C)C (some centres not stated),active: 22.4 µM,–
Nc1c(C(=O)NCCc2ccccc2)c2nc3ccccc3nc2n1CCN1CCOCC1,"inconclusive: 39.8 µM [cytotoxic, single point]",–
COC(=O)C(O)(c1ccc(NC(=S)NC(=O)c2ccc(Cl)cc2Cl)c(C)c1)C(F)(F)F (configuration not stated),–,inactive: -15.9% [at 11.5 µM]
c1ccc2sc(N3CCNCC3)nc2c1,inactive,–
CN1C2CCC1/C(=C/c1ccccn1)C(=O)/C2=C\c1ccccn1,active: 1.26 µM,–
O=[N+]([O-])c1oc2ccc3ccccc3c2c1CCO,active: 28.2 µM,–
C[C@H]1C[C@@H](C)C(=O)[C@@H]([C@H](O)CC2CC(=O)NC(=O)C2)C1,"inconclusive: 1 µM [cytotoxic, partial curve, poor fit]",–
O=C1NC2C(=CC(O)C(O)C2O)c2cc3c(cc21)OCO3 (configuration not stated),"inconclusive: 0.398 µM [cytotoxic, full curve]",–
COC1C(O)C(C)OC(OC2CCC3(C)C(CCC4C3C(O)CC3(C)C(C5=CC(=O)OC5)CCC43O)C2)C1O (configuration not stated),"inconclusive: 0.224 µM [cytotoxic, full curve]",–
NC(Cc1ccc(F)cc1)c1csc(Nc2ccccn2)n1 (configuration not stated),"inconclusive: 28.2 µM [cytotoxic, partial curve, poor fit]",–
COc1cccc2c1C(=O)c1c(O)c3c(c(O)c1C2=O)CC(O)(C(C)=NO)CC3OC1CC(N)C(O)C(C)O1 (configuration not stated),active: 17.8 µM,–
CC(C)CNc1c2c(nc3ccccc13)CCC2,"inconclusive: 3.16 µM [cytotoxic, single point]",–
COC(=O)c1nc(-c2ccc3c(n2)C(=O)C(N)=C(OC)C3=O)c(N)c(-c2ccc(OC)c(OC)c2O)c1C,active: 15.8 µM,–
CCCCCOc1ccc(C)cc1CN(CCCl)CCCl,"inconclusive: 28.2 µM [cytotoxic, single point]",–
COc1cccc(C(c2nnnn2-c2ccc3c(c2)OCCO3)N2CCC(n3c(=O)[nH]c4ccccc43)CC2)c1OC (configuration not stated),"inconclusive: 3.98 µM [cytotoxic, partial curve]",–
NC(Cc1ccc(Cl)cc1)c1csc(Nc2ccccn2)n1 (configuration not stated),active: 25.1 µM,–
CNC(=O)Nc1ccc(C(=O)N/N=C\C23CC[C@@H](O)CC2(O)CC[C@@H]2[C@@H]3CCC3(C)C(C4=CC(=O)OC4)CCC23O)cc1 (some centres not stated),"inconclusive: 39.8 µM [cytotoxic, single point]",–

Structure (SMILES),Potency,"activity change, negative = cytotoxicity"
CC12CCC(O)CC1CCC1C2CCC2(C)C(C3=CC(=O)OC3)C(O)CC12O (configuration not stated),"inconclusive: 7.94 µM [cytotoxic, full curve]",–
CC(=O)OC1(C)CC(C)C(=O)C(C(O)CC2CC(=O)NC(=O)C2)C1 (configuration not stated),–,inactive: -36.1% [at 11.5 µM]
C[C@]12CC[C@H](O)C[C@H]1CC[C@@H]1C2CC[C@]2(C)[C@@H](C3=CC(=O)OC3)[C@@H](O)C[C@]12O (some centres not stated),–,inactive: -28.4% [at 11.5 µM]
CC(C)CCn1c(N)c(C(=O)NCc2cccs2)c2nc3ccccc3nc21,"inconclusive: 39.8 µM [cytotoxic, partial curve, poor fit]",–
O=C(Nc1ccc(OC(=O)N2CCCCC2)cc1)N1CCOCC1,inactive,–
C1=NCCc2c1[nH]c1ccccc21,–,inactive: -16.8% [at 11.5 µM]
CC1OC(OC2C(O)CC(OC3C(O)CC(OC4CCC5(C)C(CCC6C5CCC5(C)C(C7=CC(=O)OC7)C(O)CC65O)C4)OC3C)OC2C)CC(O)C1O (configuration not stated),"inconclusive: 0.251 µM [cytotoxic, full curve]",–
Oc1c(Cl)cccc1Cc1cc(Cl)cc(Cl)c1O,"inconclusive: 39.8 µM [cytotoxic, single point]",–
CCn1c(O)c(/C=N/NC(=O)c2ccccc2)c(=O)n(CC)c1=S,inactive,–
Cc1ccc(-c2nc(N(C)C3CCN(C)CC3)c3ccccc3n2)cc1,"inconclusive: 31.6 µM [cytotoxic, partial curve]",–
COc1ccc(N=Cc2c(O)n(-c3ccc(C)cc3)c(=O)[nH]c2=O)cc1,inactive,–
C[C@H]1CCC[C@H](O)CCCCCc2cc(O)cc(O)c2C(=O)O1,"inconclusive: 3.55 µM [cytotoxic, partial curve, poor fit]",–
CC1CC(C)CC(C)C(O)C(C#N)=CC=CCC(C2CCCC2C(=O)O)OC(=O)CC(O)C(C)C1 (configuration not stated),"inconclusive: 0.794 µM [cytotoxic, full curve]",–
CCCCCCC(=O)N/N=C/c1c(O)n(CCCC)c(=S)[nH]c1=O,inactive,–
CSCCC(c1nnnn1-c1c(C)cccc1C)N1CCC2(CC1)C(=O)NCN2c1ccccc1 (configuration not stated),active: 31.6 µM,–
CN1CN(c2ccccc2)C2(CCN(CCCSc3ccccc3NC(=O)/C=C/c3ccccc3)CC2)C1=O,"inconclusive: 25.1 µM [cytotoxic, single point]",–
CCC(C)(O)C(=O)OC1C(=O)OC2CC3C(C)=CC(=O)C(O)C3(C)C3C4(O)OCC23C1C(C)C4O (configuration not stated),"inconclusive: 0.251 µM [cytotoxic, full curve, poor fit]",–
O=C(CSC1c2ccccc2-c2ccccc21)N/N=C/c1ccccc1O,"inconclusive: 8.91 µM [cytotoxic, full curve, poor fit]",–
c1ccc(CNc2c3c(nc4ccccc24)CCC3)cc1,"inconclusive: 28.2 µM [cytotoxic, single point]",–
COc1cc2c(ccc3c4cc(OC)c(OC)cc4c[n+](C)c23)cc1O,"inconclusive: 14.1 µM [cytotoxic, partial curve]",–
CCCCc1ccc2[nH]cc(CCN)c2c1,"inconclusive: 6.31 µM [cytotoxic, single point]",–

Structure (SMILES),Potency,"activity change, negative = cytotoxicity"
CCCCn1c(=O)c(C(=O)Nc2ccccc2S(N)(=O)=O)c(O)c2ccccc21,"inconclusive: 39.8 µM [cytotoxic, single point]",–
Cc1c2ccncc2c(C)c2c1[nH]c1ccccc12,active: 22.4 µM,–
CC[C@@]1(O)C(=O)OCc2c1cc1n(c2=O)Cc2cc3c(NC(=O)CN)cccc3nc2-1,–,inactive: 11.8% [at 11.5 µM]
Cc1cccc(C)c1-n1nnnc1C(c1cc2ccccc2o1)N1CCC(n2c(=O)[nH]c3ccccc32)CC1 (configuration not stated),active: 8.91 µM,–
Cc1ccc(N2C(=O)NC(=O)/C(=C/C=C/c3ccco3)C2=O)cc1,"inconclusive: 2.51 µM [cytotoxic, partial curve]",–
CCC1CN2CCc3cc(OC)c(OC)cc3C2CC1CC1NCCc2c1[nH]c1ccc(O)cc21 (configuration not stated),"inconclusive: 3.98 µM [cytotoxic, partial curve, poor fit]",–
Cc1cccc(-n2c(/C=C/c3ccc([N+](=O)[O-])o3)nc3ccccc3c2=O)c1,active: 7.08 µM,–
COc1ccc(C[C@H]2NC[C@H](O)[C@H]2OC(C)=O)cc1,"inconclusive: 0.0282 µM [cytotoxic, full curve, poor fit]",–
CCC(C)N1C(=O)/C(=C\c2cnc(N(C)C)nc2)C(=O)NC1=S (configuration not stated),inactive,–
COC12C(COC(N)=O)C3=C(C(=O)C(C)=C(N)C3=O)N1CC1C2N1C (configuration not stated),"inconclusive: 22.4 µM [cytotoxic, partial curve]",–
N#Cc1ncc(N=Cc2ccc(N(CCCl)CCCl)cc2)s1,"inconclusive: 7.08 µM [cytotoxic, partial curve, poor fit]",–
CC(=O)OC1CC2(O)C3CCC4CC(O)CCC4(C)C3CCC2(C)C1C1=CC(=O)OC1 (configuration not stated),"inconclusive: 0.251 µM [cytotoxic, full curve, poor fit]",–
O=c1[nH]c2ccccc2n1C1CCN(C(c2cc3ccccc3o2)c2nnnn2-c2ccc3c(c2)OCCO3)CC1 (configuration not stated),"inconclusive: 1.78 µM [cytotoxic, partial curve]",–
CCCCC(=O)N/N=C/c1c(O)n(CCC2=CCCCC2)c(=O)[nH]c1=O,"inconclusive: 28.2 µM [cytotoxic, partial curve]",–
Cc1nc2cc(-c3ccccc3)nn2c(C)c1CCC(=O)N1CCC2(CC1)OCCO2,"inconclusive: 39.8 µM [cytotoxic, single point]",–
Cc1cc(N(CCCl)CCCl)ccc1C=NNC(=O)c1cccnc1,"inconclusive: 8.91 µM [cytotoxic, partial curve]",–
COC1C(O)C(C)OC(OC2C(Oc3cccc4c(O)c5c(=O)oc6ccc(C)c7c(=O)oc(c34)c5c67)OC(C)C(O)C2O)C1O (configuration not stated),–,inactive: 9.42% [at 11.5 µM]
COc1cccc2c1cc([N+](=O)[O-])c1c(C(=O)O)cc3c(c12)OCO3,"inconclusive: 39.8 µM [cytotoxic, single point]",–
O=C1NC(=O)N(CCc2ccc(F)cc2)C(=O)/C1=C/C=C/c1ccccc1,active: 11.2 µM,–
CC(C)(C)n1nnnc1C(CCc1ccccc1)N1CCC(n2c(=O)[nH]c3ccccc32)CC1 (configuration not stated),active: 22.4 µM,–

# Full records from above. Order of values: Potency	activity change, negative = cytotoxicity
# CC[C@@]1(O)C(=O)OCc2c1cc1n(c2=O)Cc2cc3c(NC(=O)CN)cccc3nc2-1 is listed with –	inactive: 11.8% [at 11.5 µM]
# O=C1NC(=O)N(CCc2ccc(F)cc2)C(=O)/C1=C/C=C/c1ccccc1 is listed with active: 11.2 µM	–
